This note sets out measurements from publication doi:10.1101/2021.09.27.461997.

These are yes or no findings as the source states them, for the method shown. For part of these data: Binding seen in cells or lysates may run through a third protein. Some results given as binding are weak or reduced against the parent protein; the word gives no strength. For part of these data: Sequences can lack the tags named with a protein.

Assay [1] deals with AtLORE-Km (kinase-mutated AtLORE, K516A in the conserved ATP binding site), full length (Arabidopsis thaliana) (UniProt O64782). The experiment in a line: split reporter.
For assay [2] the target is unchanged. The experiment in a line: FRET or BRET.
In assay [3] the target is AtLORE-ECD (apoplastic, soluble extracellular domain of AtLORE) (Arabidopsis thaliana) (UniProt O64782). Description: co-IP.
In assay [4] the target is AtLORE-Km (kinase-mutated AtLORE, K516A in the conserved ATP binding site), full length (Arabidopsis thaliana) (UniProt O64782). The experiment in a line: co-IP.
The target of assay [5] is LIPOOLIGO…-SPECIFIC REDUCED …ON (LORE) from Arabidopsis thaliana, kinase-active, full length (Arabidopsis thaliana) (UniProt O64782). Description: co-IP.
Assay [6] deals with AtLORE-ECD with N-terminal Twin-strep-tag, purified (Arabidopsis thaliana) (UniProt O64782). The experiment in a line: SEC.

As to “AtLORE-Km (kinase-mutated AtLORE, K516A in the conserved ATP binding site), full length (from UniProt O64782 22-805) (receptor)”, the binding result in assay [1] is “binds”; in assay [2], “binds”; in assay [3], “binds weakly”; in assay [4] it was “binds”.

B1: LIPOOLIGO…-SPECIFIC REDUCED …ON (LORE) from Arabidopsis thaliana, kinase-active, full length (receptor, UniProt O64782 22-805)
chain: AINTSSPLSIRQTLSSPGGFYELGFFSPNNTQNQYVGIWFKKIVPRVVVWVANRDTPVTSSAANLTISSNGSLILLDGKQDVIWSTGKAFTSNKCHAELLDTGNFVVIDDVSGNKLWQSFEHLGNTMLPQSSLMYDTSNGKKRVLTTWKSNSDPSPGEFSLEITPQIPTQGLIRRGSVPYWRCGPWAKTRFSGISGIDASYVSPFSVVQDTAAGTGSFSYSTLRNYNLSYVTLTPEGKMKILWDDGNNWKLHLSLPENPCDLYGRCGPYGLCVRSDPPKCECLKGFVPKSDEEWGKGNWTSGCVRRTKLSCQAKSSMKTQGKDTDIFYRMTDVKTPDLHQFASFLNAEQCYQGCLGNCSCTAFAYISGIGCLVWNGELADTVQFLSSGEFLFIRLASSELAGSSRRKIIVGTTVSLSIFLILVFAAIMLWRYRAKQNDAWKNGFERQDVSGVNFFEMHTIRTATNNFSPSNKLGQGGFGPVYKGKLVDGKEIGVKRLASSSGQGTEEFMNEITLISKLQHRNLVRLLGYCIDGEEKLLIYEFMVNKSLDIFIFDPCLKFELDWPKRFNIIQGIARGLLYLHRDSRLRVIHRDLKVSNILLDDRMNPKISDFGLARMFQGTQYQDNTRRVVGTLGYMSPEYAWAGLFSEKSDIYSFGVLMLEIISGKRISRFIYGDESKGLLAYTWDSWCETGGSNLLDRDLTDTCQAFEVARCVQIGLLCVQHEAVDRPNTLQVLSMLTSATDLPVPKQPIFAVHTLNDMPMLQANSQDFLSVNEMTESMIQGR
With B1, in assay [5], the binding entry was “binds”.

B2: AtLORE-ECD with N-terminal Twin-strep-tag, purified (domain or fragment, UniProt O64782 22-428)
chain: AINTSSPLSIRQTLSSPGGFYELGFFSPNNTQNQYVGIWFKKIVPRVVVWVANRDTPVTSSAANLTISSNGSLILLDGKQDVIWSTGKAFTSNKCHAELLDTGNFVVIDDVSGNKLWQSFEHLGNTMLPQSSLMYDTSNGKKRVLTTWKSNSDPSPGEFSLEITPQIPTQGLIRRGSVPYWRCGPWAKTRFSGISGIDASYVSPFSVVQDTAAGTGSFSYSTLRNYNLSYVTLTPEGKMKILWDDGNNWKLHLSLPENPCDLYGRCGPYGLCVRSDPPKCECLKGFVPKSDEEWGKGNWTSGCVRRTKLSCQAKSSMKTQGKDTDIFYRMTDVKTPDLHQFASFLNAEQCYQGCLGNCSCTAFAYISGIGCLVWNGELADTVQFLSSGEFLFIRLASSELAGSSRRK
On to B2, for which, in assay [6], the binding entry is recorded as “no binding”.
